# Assay results from paper PMC8384837.
# Residue numbers refer to the chain shown, from its start. The list shows a part of the results. For some of these results: At the low end of the ranking, values are background and their order means little.
# Key:
# Conditions in all cases: yeast three-hybrid, YBZ-1, SC-Leu-His + 0.5 mM 3-AT, 4 days
# [1] = molecular target: T1, PUM1 PUF domain R3-RQG C935R + R936Q + Q939G (UniProt Q14671)
# T1 sequence: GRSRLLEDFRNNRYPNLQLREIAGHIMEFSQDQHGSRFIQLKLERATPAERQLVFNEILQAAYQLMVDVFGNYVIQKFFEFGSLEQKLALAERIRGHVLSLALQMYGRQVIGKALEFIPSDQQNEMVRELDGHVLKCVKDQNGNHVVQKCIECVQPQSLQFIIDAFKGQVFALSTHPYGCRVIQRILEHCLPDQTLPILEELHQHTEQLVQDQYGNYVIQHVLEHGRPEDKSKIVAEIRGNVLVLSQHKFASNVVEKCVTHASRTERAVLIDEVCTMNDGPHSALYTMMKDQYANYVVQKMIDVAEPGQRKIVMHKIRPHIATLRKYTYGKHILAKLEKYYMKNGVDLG
# [2] = molecular target: T2, PUM1 PUF domain R3-RQL C935R + R936Q + Q939L (UniProt Q14671)
# T2 sequence: T1 sequence with G112L
# [3] = molecular target: T3, PUM1 PUF domain R3-RQS C935R + R936Q + Q939S (UniProt Q14671)
# T3 sequence: T1 sequence with G112S
# [4] = molecular target: T4, PUM1 PUF domain R3-RQV C935R + R936Q + Q939V (UniProt Q14671)
# T4 sequence: T1 sequence with G112V
# [5] = molecular target: T5, PUM1 PUF domain R3-RQW C935R + R936Q + Q939W (UniProt Q14671)
# T5 sequence: T1 sequence with G112W
# [6] = molecular target: T6, PUM1 PUF domain R3-RRA C935R + Q939A (Homo sapiens) (UniProt Q14671)
# T6 sequence: T1 sequence with Q109R, G112A
# [7] = molecular target: T7, PUM1 PUF domain R3-RRE C935R + Q939E (UniProt Q14671)
# T7 sequence: T1 sequence with Q109R, G112E
# [8] = molecular target: T8, PUM1 PUF domain R3-RRG C935R + Q939G (UniProt Q14671)
# T8 sequence: T1 sequence with Q109R
# [9] = molecular target: T9, PUM1 PUF domain R3-RRK C935R + Q939K (UniProt Q14671)
# T9 sequence: T1 sequence with Q109R, G112K
# [10] = molecular target: T10, PUM1 PUF domain R3-RRL C935R + Q939L (UniProt Q14671)
# T10 sequence: T1 sequence with Q109R, G112L
# [11] = molecular target: T11, PUM1 PUF domain R3-RRP C935R + Q939P (UniProt Q14671)
# T11 sequence: T1 sequence with Q109R, G112P
# [12] = molecular target: T12, PUM1 PUF domain R3-RRR C935R + Q939R (UniProt Q14671)
# T12 sequence: T1 sequence with Q109R, G112R
# [13] = molecular target: T13, PUM1 PUF domain R3-RSA C935R + R936S + Q939A (UniProt Q14671)
# T13 sequence: T1 sequence with Q109S, G112A
# [14] = molecular target: T14, PUM1 PUF domain R3-RSC C935R + R936S + Q939C (UniProt Q14671)
# T14 sequence: T1 sequence with Q109S, G112C
# [15] = molecular target: T15, PUM1 PUF domain R3-RSF C935R + R936S + Q939F (Homo sapiens) (UniProt Q14671)
# T15 sequence: T1 sequence with Q109S, G112F
# [16] = molecular target: T16, PUM1 PUF domain R3-RSG C935R + R936S + Q939G (UniProt Q14671)
# T16 sequence: T1 sequence with Q109S
# [17] = molecular target: T17, PUM1 PUF domain R3-RSL C935R + R936S + Q939L (UniProt Q14671)
# T17 sequence: T1 sequence with Q109S, G112L
# [18] = molecular target: T18, PUM1 PUF domain R3-RSR C935R + R936S + Q939R (UniProt Q14671)
# T18 sequence: T1 sequence with Q109S, G112R
# [19] = molecular target: T19, PUM1 PUF domain R3-RSS C935R + R936S + Q939S (UniProt Q14671)
# T19 sequence: T1 sequence with Q109S, G112S
# [20] = molecular target: T20, PUM1 PUF domain R3-RST C935R + R936S + Q939T (UniProt Q14671)
# T20 sequence: T1 sequence with Q109S, G112T
# [21] = molecular target: T21, PUM1 PUF domain R3-RSV C935R + R936S + Q939V (UniProt Q14671)
# T21 sequence: T1 sequence with Q109S, G112V
# [22] = molecular target: T22, PUM1 PUF domain R3-RSW C935R + R936S + Q939W (UniProt Q14671)
# T22 sequence: T1 sequence with Q109S, G112W
# [23] = molecular target: T23, PUM1 PUF domain R3-RTC C935R + R936T + Q939C (UniProt Q14671)
# T23 sequence: T1 sequence with Q109T, G112C
# [24] = molecular target: T24, PUM1 PUF domain R3-RTG C935R + R936T + Q939G (UniProt Q14671)
# T24 sequence: T1 sequence with Q109T
# [25] = molecular target: T25, PUM1 PUF domain R3-RTM C935R + R936T + Q939M (UniProt Q14671)
# T25 sequence: T1 sequence with Q109T, G112M
# [26] = molecular target: T26, PUM1 PUF domain R3-RTR C935R + R936T + Q939R (UniProt Q14671)
# T26 sequence: T1 sequence with Q109T, G112R
# [27] = molecular target: T27, PUM1 PUF domain R3-RTV C935R + R936T + Q939V (UniProt Q14671)
# T27 sequence: T1 sequence with Q109T, G112V
# [28] = molecular target: T28, PUM1 PUF domain R3-RTW C935R + R936T + Q939W (UniProt Q14671)
# T28 sequence: T1 sequence with Q109T, G112W
# [29] = molecular target: T29, PUM1 PUF domain R3-RVA C935R + R936V + Q939A (UniProt Q14671)
# T29 sequence: T1 sequence with Q109V, G112A
# [30] = molecular target: T30, PUM1 PUF domain R3-RVM C935R + R936V + Q939M (UniProt Q14671)
# T30 sequence: T1 sequence with Q109V, G112M
# [31] = molecular target: T31, PUM1 PUF domain R3-RVQ C935R + R936V (UniProt Q14671)
# T31 sequence: T1 sequence with Q109V, G112Q
# [32] = molecular target: T32, PUM1 PUF domain R3-RVR C935R + R936V + Q939R (UniProt Q14671)
# T32 sequence: T1 sequence with Q109V, G112R
# [33] = molecular target: T33, PUM1 PUF domain R3-RVS C935R + R936V + Q939S (UniProt Q14671)
# T33 sequence: T1 sequence with Q109V, G112S
# [34] = molecular target: T34, PUM1 PUF domain R3-RVT C935R + R936V + Q939T (UniProt Q14671)
# T34 sequence: T1 sequence with Q109V, G112T
# [35] = molecular target: T35, PUM1 PUF domain R3-SCD C935S + R936C + Q939D (UniProt Q14671)
# T35 sequence: T1 sequence with R108S, Q109C, G112D
# [36] = molecular target: T36, PUM1 PUF domain R3-SCP C935S + R936C + Q939P (UniProt Q14671)
# T36 sequence: T1 sequence with R108S, Q109C, G112P
# [37] = molecular target: T37, PUM1 PUF domain R3-SEE C935S + R936E + Q939E (UniProt Q14671)
# T37 sequence: T1 sequence with R108S, Q109E, G112E
# [38] = molecular target: T38, PUM1 PUF domain R3-SGE C935S + R936G + Q939E (UniProt Q14671)
# T38 sequence: T1 sequence with R108S, Q109G, G112E
# [39] = molecular target: T39, PUM1 PUF domain R3-SHG C935S + R936H + Q939G (UniProt Q14671)
# T39 sequence: T1 sequence with R108S, Q109H
# [40] = molecular target: T40, PUM1 PUF domain R3-SIR C935S + R936I + Q939R (UniProt Q14671)
# T40 sequence: T1 sequence with R108S, Q109I, G112R
sequence,measurement,setting,value
GGCUAGAACUAGUGGAUCCCCCGGCGCCCGGCGGCUCGAGCCCGGGUAAGUGUAACUAGUCUGCAUGCCGCCGGGCGCCAUGCCUGCAGGUCGACUCUAGAAAACAUG,binding signal (log2 enrichment (interaction score)),[1],-5.19
same,binding signal (log2 enrichment (interaction score)),[2],< -8.64
same,binding signal (log2 enrichment (interaction score)),[3],< -8.94
same,binding signal (log2 enrichment (interaction score)),[4],< -7.58
same,binding signal (log2 enrichment (interaction score)),[5],< -7.32
same,binding signal (log2 enrichment (interaction score)),[6],-2.01
same,binding signal (log2 enrichment (interaction score)),[7],-3.4
same,binding signal (log2 enrichment (interaction score)),[8],-2.33
same,binding signal (log2 enrichment (interaction score)),[9],< -6.46
same,binding signal (log2 enrichment (interaction score)),[10],-6.8
same,binding signal (log2 enrichment (interaction score)),[11],< -7.28
same,binding signal (log2 enrichment (interaction score)),[12],-6.39
same,binding signal (log2 enrichment (interaction score)),[13],-2.98
same,binding signal (log2 enrichment (interaction score)),[14],< -7.67
same,binding signal (log2 enrichment (interaction score)),[15],-1.3
same,binding signal (log2 enrichment (interaction score)),[16],-4.67
same,binding signal (log2 enrichment (interaction score)),[17],-6.88
same,binding signal (log2 enrichment (interaction score)),[18],< -8.7
same,binding signal (log2 enrichment (interaction score)),[19],< -8.98
same,binding signal (log2 enrichment (interaction score)),[20],-2.33
same,binding signal (log2 enrichment (interaction score)),[21],< -9.07
same,binding signal (log2 enrichment (interaction score)),[22],< -6.78
same,binding signal (log2 enrichment (interaction score)),[23],< -6.63
same,binding signal (log2 enrichment (interaction score)),[24],-5.28
same,binding signal (log2 enrichment (interaction score)),[25],< -6.85
same,binding signal (log2 enrichment (interaction score)),[26],< -6.83
same,binding signal (log2 enrichment (interaction score)),[27],< -8.46
same,binding signal (log2 enrichment (interaction score)),[28],< -8.59
same,binding signal (log2 enrichment (interaction score)),[29],-4.84
same,binding signal (log2 enrichment (interaction score)),[30],< -7.89
same,binding signal (log2 enrichment (interaction score)),[31],< -9.22
same,binding signal (log2 enrichment (interaction score)),[32],-7.55
same,binding signal (log2 enrichment (interaction score)),[33],< -8.22
same,binding signal (log2 enrichment (interaction score)),[34],< -8.84
same,binding signal (log2 enrichment (interaction score)),[35],< -6.29
same,binding signal (log2 enrichment (interaction score)),[36],< -7.58
same,binding signal (log2 enrichment (interaction score)),[37],< -9.69
same,binding signal (log2 enrichment (interaction score)),[38],< -8.14
same,binding signal (log2 enrichment (interaction score)),[39],< -8.73
same,binding signal (log2 enrichment (interaction score)),[40],< -10.4

# Reformatted with tabs: entries from further up
sequence	measurement	setting	value
GGCUAGAACUAGUGGAUCCCCCGGCGCCCGGCGGCUCGAGCCCGGGUAAGUGUAACUAGUCUGCAUGCCGCCGGGCGCCAUGCCUGCAGGUCGACUCUAGAAAACAUG	binding signal (log2 enrichment (interaction score))	[12]	-6.39
same	binding signal (log2 enrichment (interaction score))	[22]	< -6.78
same	binding signal (log2 enrichment (interaction score))	[24]	-5.28
